Experimental data: PubChem BioAssay AID1224828 (NIAID, 2016)
The deposit covers about 17,000 reagents; this is a part drawn at random. 762 of all reagents (4.5%) count as active. 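Active calls include both raised and lowered p65 entry, mostly lowered; wells with fewer than 50 cells lack a z-score.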 Raw values are not corrected between plates. Reagents against one gene are numbered here.

Aim: 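Find genes required for NF-kappaB p65 moving into the nucleus after LPS in mouse macrophages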 (primary screen)
Cells: mouse RAW264.7 G9 macrophage reporter cells (GFP-p65, Tnf promoter-mCherry)
Reagents: siRNA pool against mouse genes, 100 nM
Time to read-out: 2 days siRNA transfection, then 40 min LPS before fixation
Conditions: LPS (Salmonella minnesota R595) at 10 ng/ml
Measurement: 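Imaged p65 nuclear translocation ratio, normalised to the plate median, converted to robust z-scores and averaged across two replicates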
Direction: p65 translocation robust z-score: higher = more nuclear NF-kappaB p65 after LPS than the plate median; nuclear/cytoplasmic p65 ratio: higher = more nuclear NF-kappaB p65
Hit rule: 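Called active when z exceeds 3.3 or falls under -1.56 (median of Tlr4 controls), giving activity score of at least 50; no calls for control wells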
Calls: active = hit (p65 shift raised or lowered); inactive = no clear change

gene	pool no.	p65 translocation robust z-score	nuclear/cytoplasmic p65 ratio, rep 1	nuclear/cytoplasmic p65 ratio, rep 2	low cell count flag	call
A130014H13Rik	1	0.2	1.44	1.52	enough cells to score	inactive
Hars2	1	0.57	1.67	1.68	enough cells to score	inactive
Ca5a	1	-1.95	1.33	1.43	enough cells to score	active
Naa25	1	-0.67	1.39	1.38	enough cells to score	inactive
Or9r3	1		1.44	1.12	fewer than 50 cells per well; well left out of scoring	inactive
Tm6sf2	1	0.96	1.48	1.3	enough cells to score	inactive
4930524B15Rik	1		1.4	1.11	fewer than 50 cells per well; well left out of scoring	inactive
S1pr3	1	0.49	1.47	1.76	enough cells to score	inactive
Or5j3	1	-0.22	1.5	1.65	enough cells to score	inactive
Elavl3	1	-0.15	1.54	1.26	enough cells to score	inactive
Csn2	1	-0.41	1.46	1.78	enough cells to score	inactive
Atp8b2	1	0.17	1.63	1.65	enough cells to score	inactive
Or8j3	1	0.05	1.77	1.5	enough cells to score	inactive
Mtus2	1	-1.05	1.2	1.47	enough cells to score	inactive
Cdh11	1	1.03	1.76	1.37	enough cells to score	inactive
Or5w22	1	-0.2	1.54	1.43	enough cells to score	inactive
Spock2	1	1.09	1.6	1.33	enough cells to score	inactive
Slc5a11	1		1.23	1.27	fewer than 50 cells per well; well left out of scoring	inactive
Kcnd2	1	0.07	1.51	1.37	enough cells to score	inactive
Atcay	1	0.79	1.6	1.74	enough cells to score	inactive
Hus1b	1	0.75	1.51	1.5	enough cells to score	inactive
Sdhb	1	-0.48	1.28	1.69	enough cells to score	inactive
Dzip1l	1		1.64	1.99	fewer than 50 cells per well; well left out of scoring	inactive
Cpne8	1	0.1	1.66	1.72	enough cells to score	inactive
Whr1	1	0.02	1.67	1.41	enough cells to score	inactive
Fbxw11	1	-2.32	1.12	1.07	enough cells to score	active
Or52e4	1	0.13	1.48	1.28	enough cells to score	inactive
Psca	1	-0.13	1.36	1.21	enough cells to score	inactive
Fgf17	1	0.64	1.48	1.49	enough cells to score	inactive
Ppp1r14bl	1		1.14	1.51	fewer than 50 cells per well; well left out of scoring	inactive
Fmnl3	1	1.62	1.81	1.7	enough cells to score	inactive
Bpgm	1	-0.44	1.55	1.54	enough cells to score	inactive
Ptgr3	1		1.65	1.57	fewer than 50 cells per well; well left out of scoring	inactive
1700008J07RIK	1		1.51	1.57	fewer than 50 cells per well; well left out of scoring	inactive
Clip2	1	-0.27	1.38	1.4	enough cells to score	inactive
Dnajb2	1	2.43	1.82	1.65	enough cells to score	inactive
Slc45a2	1	-0.03	1.43	1.34	enough cells to score	inactive
Eif3h	1	-0.22	1.52	1.27	enough cells to score	inactive
Epha8	1	0.16	1.7	1.41	enough cells to score	inactive
Or4n5	1	-0.8	1.1	1.18	enough cells to score	inactive
Uros	1	-1.36	1.29	1.34	enough cells to score	inactive
Met	1	-0.33	1.61	1.35	enough cells to score	inactive
Veph1	1		1.37	1.28	fewer than 50 cells per well; well left out of scoring	inactive
Zng1	1	0.9	1.76	1.94	enough cells to score	inactive
Prdx2	1	-0.48	1.37	1.4	enough cells to score	inactive
Spag9	1	-1.22	1.32	1.43	enough cells to score	inactive
Nudt19	1	-1.2	1.28	1.4	enough cells to score	inactive
Prox1	1	-0.54	1.46	1.31	enough cells to score	inactive
Tbcc	1	0.19	1.49	1.6	enough cells to score	inactive
Cep43	1	-0.2	1.44	1.32	enough cells to score	inactive
Gja3	1	-1.48	1.3	1.12	enough cells to score	inactive
Syngr1	1	0.24	1.5	1.13	enough cells to score	inactive
Ttc3	1	-1.07	1.28	1.11	enough cells to score	inactive
Dhx16	1	0.24	1.57	1.36	enough cells to score	inactive
Npy	1	3.94	2.56	1.66	enough cells to score	active
Or5b121	1	0.65	1.74	1.48	enough cells to score	inactive
9930038B18Rik	1	-1.46	1.26	1.3	enough cells to score	inactive
Slc6a17	1	-0.9	1.45	1.62	enough cells to score	inactive
Gclc	1	-0.48	1.36	1.32	enough cells to score	inactive
Zdhhc6	1		1.36	1.24	fewer than 50 cells per well; well left out of scoring	inactive
Rps7	1	-0.29	1.43	1.19	enough cells to score	inactive
Brinp1	1	-0.86	1.42	1.79	enough cells to score	inactive
Aarsd1	1	1.41	1.61	1.41	enough cells to score	inactive
Tusc2	1		1.46	1.23	fewer than 50 cells per well; well left out of scoring	inactive
Taf9	1	-0.13	1.56	1.62	enough cells to score	inactive
Taf9	2	-0.79	1.25	1.11	enough cells to score	inactive
Nlgn1	1	-0.39	1.63	1.5	enough cells to score	inactive
Spata33	1	2.07	1.53	1.43	enough cells to score	inactive
Gpr33	1	1.35	1.76	1.75	enough cells to score	inactive
2310057M21Rik	1		1.74	2.98	fewer than 50 cells per well; well left out of scoring	inactive
Fhod3	1	0.98	1.72	1.64	enough cells to score	inactive
Osbpl3	1		1.55	1.17	fewer than 50 cells per well; well left out of scoring	inactive
Rbm5	1	-1.67	1.26	1.3	enough cells to score	active
Gas5	1	-0.37	1.52	1.37	enough cells to score	inactive
Matk	1	-0.5	1.49	1.4	enough cells to score	inactive

Entries listed so far with an active call:
gene	pool no.	p65 translocation robust z-score	nuclear/cytoplasmic p65 ratio, rep 1	nuclear/cytoplasmic p65 ratio, rep 2	low cell count flag	call
Ca5a	1	-1.95	1.33	1.43	enough cells to score	active
Fbxw11	1	-2.32	1.12	1.07	enough cells to score	active
Npy	1	3.94	2.56	1.66	enough cells to score	active
Rbm5	1	-1.67	1.26	1.3	enough cells to score	active
